In the supplement of paper PMC3334620:
The full ranking holds about 33,000 sequences; the median of “E-score (-0.5 to 0.5)” is about -0.0059, and the highest 2% start at about 0.26. Some of the results follow.

Each sequence was assayed against T1, Cin5 (UniProt P40917) (assay: PBM E-score (8-mer binding enrichment) (E-score (-0.5 to 0.5)); higher = stronger / more preferred TF binding). Details: protein concentration: 100 nM; construct: GST-full length.
T1 sequence: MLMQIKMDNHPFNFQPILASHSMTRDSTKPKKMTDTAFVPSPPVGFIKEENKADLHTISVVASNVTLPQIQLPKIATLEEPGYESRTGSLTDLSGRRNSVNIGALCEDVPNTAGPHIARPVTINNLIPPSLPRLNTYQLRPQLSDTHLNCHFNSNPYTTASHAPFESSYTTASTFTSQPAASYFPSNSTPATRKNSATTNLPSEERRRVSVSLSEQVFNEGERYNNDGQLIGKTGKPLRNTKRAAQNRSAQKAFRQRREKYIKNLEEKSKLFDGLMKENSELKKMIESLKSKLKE
Procedure, shortened: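 Masliner-normalised scans of fluorescent anti-GST signal were the basis for scoring. That signal came from GST-tagged yeast transcription factors applied at about 100-200 nM to double-stranded universal all-10-mer Agilent arrays on fresh or once-stripped slides. Each ungapped eight-base word, pooled with its reverse complement, received an E-score from the Universal PBM Analysis Suite.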

Point of comparison: AGTGAGTC, “PBM E-score” value -0.0677. Against it:
- AGTATCCG — higher, 0.0449
- ATATCCGA — higher, 0.235
- CCCTGGGC — lower, -0.308
- CAAACTTC — higher, 0.165
- AGGTACTA — higher, 0.0435
- CCCCCCCC — lower, -0.5
- CCGGGGCC — lower, -0.242
- TCGAGACA — higher, -0.0366
- ATTCCTGA — higher, -0.023
- AAATGACA — higher, 0.175
- CGCGGAGA — higher, 0.0927
- CTGCTACA — higher, 0.0535
- CCGTGTCA — lower, -0.205
- TCGACTAA — higher, 0.0548
- AAGGATCG — higher, 0.00025
- CCCACAAG — lower, -0.0905
- CAAGGAGC — lower, -0.0695
- AATTAATG — higher, 0.221
- CATGACTA — higher, -0.0231
- ACCTATCC — higher, -0.0511
- CACTTAGC — higher, 0.0334
- ACTTGTGG — higher, 0.0113
- CCTGTTCA — lower, -0.194
- AAATTTTC — higher, -0.0143
- ATAATAGC — higher, 0.0795
- CAACGCAC — higher, -0.0234
- CTAGTCTC — lower, -0.0846
- TACACGTA — higher, 0.127
- AATGAGGT — higher, 0.103
- CCCTACAC — higher, -0.0428
- CGTCATCA — higher, 0.241
- CTGTGAGC — higher, -0.0369
- GGAGGATA — higher, -0.0068
- ATCTCGAA — higher, 0.0759
- ATTTCTGG — higher, 0.0764
- AGCAGGCC — lower, -0.259
- AATAGTCA — higher, 0.0413
- AACGTCTC — higher, 0.0617
- CTACGCTA — lower, -0.113
- ATTTAAGG — lower, -0.0712
- TGAGGGAA — higher, -0.0591
- AATCATGG — higher, -0.0172
- ATTAATAA — higher, 0.336
- ATCTCCGG — higher, 0.154
- AACGAGCA — higher, -0.0287
- ATCCTATG — higher, -0.0109
- GCTCCAAA — lower, -0.176
- ACCTTCCA — lower, -0.0697
- AGGGCTTA — higher, -0.0648
- ACGACCTA — higher, -0.016
- AATTCGCT — higher, 0.325
- ATGCAGTG — higher, 0.0118
- AGCGTGAG — higher, 0.0199
- AATGTGGT — higher, 0.16
- CGGACTCA — higher, -0.0444
- AATAACCC — higher, 0.174
- TAACAAGA — higher, -0.0483
- AAATACAG — higher, 0.119
- GGACTCCC — lower, -0.345
- GATATGAC — higher, 0.0911
- AGACCTAA — lower, -0.0766
- CAATCCCC — higher, 0.0168
- TAATACGA — higher, 0.12
- TCTAGAAA — higher, 0.00706
- AGCGCTAA — higher, 0.123
- CTCTATAC — higher, -0.0333
- ATTAGTGG — higher, 0.219
- AAGTTAAG — higher, -0.041
- ACCGTTTA — higher, -0.034
- CATTAGGC — lower, -0.266
- ATACTCAA — higher, 0.204
- CTCCAACA — higher, 0.0437
- CATACGAC — higher, -0.0512
- AGTTCAAC — higher, 0.18
- CATGCCGA — higher, 0.0868
- AGTCTACA — lower, -0.26
- CAACTGTG — lower, -0.0932
- AGGGGGCG — lower, -0.302
- CCCTAAAC — lower, -0.166
- ATAGAATG — higher, 0.209
- CGCGAGCA — higher, 0.0699
- TGCTCGAA — lower, -0.0801
- GTTTCTGA — higher, 0.0462
- AGACTAAC — higher, 0.0216
- ACCGTAAC — higher, -0.0293
- AACCAGAT — higher, 0.0426
- CGGGTCTC — lower, -0.214
- GGGAGTTA — higher, -0.00691
- CGGACCAA — higher, 0.0118
- CTAAACGC — higher, 0.0872
- GCATGGGC — lower, -0.151
- TACCACCA — higher, -0.0388
- ATTTCTGA — lower, -0.0921
- AAGCCCCC — lower, -0.412
- GGGGCAAC — lower, -0.124
- ATACTTAG — higher, 0.0186
- GGCCTGCA — lower, -0.335
- AGTTTTCG — higher, 0.0694
- CCCTCATA — higher, 0.012
- ACCTATAC — higher, 0.0459
- ATTCAACG — higher, 0.0816
- ATTGTAAA — higher, 0.181
- ATGGACTC — higher, 0.00164
- TATAGATA — higher, 0.176
- CTGGGTCA — lower, -0.0951
- AGTGGTGG — higher, -0.049
- CCCTGTTA — higher, 0.108
- GGCGGCAC — higher, -0.0185
- GAGCTGTA — lower, -0.117
- CATGTGCG — higher, 0.0842
- AAATAAAT — higher, 0.246
- CGTCACTC — lower, -0.173
- TCACGCAA — higher, 0.145
- AGGGGCTA — lower, -0.16
- CGTGCCAA — lower, -0.103
- ATCTTTCG — higher, 0.0728
- AACAGTGG — higher, 0.0147
- CCTACCCC — lower, -0.0989
- GATAGTAC — higher, 0.0953
- CTGCCGAC — lower, -0.0835
- AAATCAGA — higher, -0.0108
- ACATAAAA — higher, 0.22
- CAACCTGG — higher, -0.00955
- CCCCGGAA — higher, -0.0533
- ACGTCGAT — higher, 0.105
- ACTAACTC — lower, -0.124
- AGACGGGA — higher, -0.0668
- ATTCTCCA — higher, 0.101
- ACTTGTCT — higher, -0.0498
- CCACGCCC — lower, -0.266
- CCCCCACA — lower, -0.446
- ACGTTTGC — higher, -0.0322
- ACAGACAT — higher, -0.00061
- ACCAATCA — higher, 0.16
- GTCTTTCA — lower, -0.207
- AGGGCCCG — lower, -0.202
- TACCATGA — higher, 0.046
- CTGATAAG — higher, 0.11
- ACACTTTA — higher, 0.133
- CAATTAGC — higher, 0.0636
- CCGTCATA — higher, -0.03
- AAGCGGAC — higher, 0.0173
- GACCGCGC — higher, -0.016
- ATTCGCTG — higher, 0.0687
- AACCGCTT — higher, 0.0104
- ATCGGGAG — lower, -0.115
- CGAGAAAC — lower, -0.0776
- GCGAAGTA — higher, 0.0807
- ACCGGGGC — lower, -0.136
- CACGGTGG — higher, 0.0279
- CTTCACAA — lower, -0.121
- ATCGACAC — higher, 0.00721
- ACGGTGAC — lower, -0.127
- CCACGCTC — lower, -0.237
- ACAATGAG — higher, -0.0282
- GCTGGTCA — lower, -0.194
- ATATGCAG — lower, -0.0746
- CCTCAAAG — lower, -0.241
- AGCAGTGA — higher, 0.2
- AGGGTCGA — lower, -0.084
- AACTGTCT — higher, 0.0125
- CCGTTTAG — lower, -0.0924
- ATGGTGGA — higher, -0.0343
- ACCTCAGT — higher, 0.081
- AAGCGTTA — higher, 0.00153
- ATTTAGAG — higher, 0.0567
- GCCCTTCC — lower, -0.388
- CAATTTGC — higher, 0.109
- GACGCCAC — lower, -0.202
- ATCGGACC — higher, -0.0615
- CCCCCAAC — lower, -0.382
